According to PubChem BioAssay AID2685 (National Center for Advancing Translational Sciences (NCATS), 2010):
Some of the results follow. These are further read-outs of the screen, such as a control signal, another cell line or another target. No call is given for them. Most of these compounds were active or inconclusive in the main read-out, so they are no random draw. Words in brackets tell the shape of the fitted curve; partial curves, single points and poor fits give uncertain potencies.

Test: qHTS Assay for Lipid Storage Modulators in Drosophila S3 Cells;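 as to cell number change: cells counted by Cell Tracker Red CMTPX staining in the red channel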
Conditions: BODIPY lipid droplet fluorescence, 18-24 h; for cell number change: measured here: cell count max response, cells fed with added oleic acid
Summary of the method: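 Drosophila S3 cells loaded with oleic acid (400 uM, as added) and compounds at several concentrations; lipid droplets imaged by 488-nm laser-scanning cytometry, 500–530 nm intensity and object ratio to cell channel. Percent activity normalized to 20 uM Triacsin C.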

[1] = measured here: lipid fluorescence (Fed channel) AC50, cells fed with added oleic acid
[2] = measured here: cell number channel AC50, cells fed with added oleic acid

Row | SMILES | cell number change | AC50 [1] | AC50 [2]
1 | CC(=O)Nc1nc(C=C(Cl)Cl)cs1 | 1.89% | 4.61 µM [falling, full curve] | –
2 | CCOCCCNC(=O)C1CCN(S(=O)(=O)CC)CC1 | -7.72% | 0.146 µM [falling, full curve, poor fit] | –
3 | CCCOc1ccc(N2C(=O)CC(S/C(N)=N/N=C(\C)c3cccs3)C2=O)cc1 (stereo not drawn) | -25.4% | 20.6 µM [falling, single point] | –
4 | CN(CC(=O)Nc1ccc(Cl)c(C(F)(F)F)c1)C(=O)c1cccc2cccnc12 | -2.06% | 4.11 µM [rising, full curve, poor fit] | –
5 | CC(C)N=C(NS(=O)(=O)c1ccc(Br)cc1)c1ccc(Cl)cc1 | -6.21% | 2.91 µM [falling, single point] | –
6 | Nn1c(N2CCCCC2)nc2ccccc21 | 0.806% | 2.91 µM [rising, partial curve] | 3.26 µM [rising, single point]
7 | CC1CC1C(=O)Nc1cc(S(=O)(=O)N2CCOCC2)ccc1N1CCCC1 (stereo not drawn) | 39.7% | – | 3.26 µM [falling, single point]
8 | Cc1ccc(S(=O)(=O)CC(=O)N2CCCCCC2)cc1 | – | 0.00411 µM [rising, full curve, poor fit] | –
9 | O=C(O)C1CCN(S(=O)(=O)c2cccc3nsnc23)CC1 | – | 6.51 µM [falling, single point] | –
10 | C=CCNC(=O)c1cc(-c2ccc(Br)cc2)on1 | 26.6% | 8.2 µM [rising, partial curve] | –
11 | O=C1Nc2ccc([N+](=O)[O-])cc2OC1CCN1CCN(Cc2ccc3c(c2)OCO3)CC1 (stereo not drawn) | -48.4% | – | –
12 | CC(C)CCN(C(=O)c1csnn1)C(C(=O)NC1CCCC1)c1ccccc1 (stereo not drawn) | -10.5% | 3.55 µM [falling, partial curve] | –
13 | COc1ccc(C(=O)N/N=C/c2sc(N3CCOCC3)nc2-c2ccccc2)cc1OC | 48.2% | – | 2.91 µM [rising, full curve]
14 | CC1CCCCC1NS(=O)(=O)c1ccc2c(c1)CC(=O)N2C (stereo not drawn) | 14.9% | – | –
15 | CC(C)C[C@H](N)C(=O)N1CCC(C(=O)N[C@H](C(=O)NCc2ccc(F)cc2)C(C)C)CC1 | 23% | 0.82 µM [falling, single point] | –
16 | CC(C)N(Cc1ccccc1)C(=S)NCCN1CCOCC1 | -14.7% | 0.1 µM [rising, full curve, poor fit] | –
17 | CCC(C)[C@H](NC(=O)OC(C)(C)C)C(=O)N/N=C/C1=Cc2ccccc2OC1 (stereo partly drawn) | -35.7% | 14.6 µM [falling, partial curve] | –
18 | O=C(CCN=C1NS(=O)(=O)c2ccccc21)N1CCc2ccccc2C1 | 41.7% | – | 5.17 µM [rising, partial curve]
19 | CCSc1nnc(C)c2ccccc12 | 11.2% | – | 0.164 µM [falling, full curve, poor fit]
20 | Cc1ccc(NC(=O)CN(C)C(C)C(=O)Nc2ccc(S(=O)(=O)N3CCCC3)cc2)cc1 (stereo not drawn) | – | 0.164 µM [rising, full curve, poor fit] | 3.66 µM [rising, partial curve]
21 | CCC(=O)Nc1cc(C(C)C)c(O)cc1C | -9.14% | 29.1 µM [falling, single point] | –

Some of the entries so far, in markdown:

| Row | SMILES | cell number change | AC50 [1] | AC50 [2] |
| --- | --- | --- | --- | --- |
| 9 | O=C(O)C1CCN(S(=O)(=O)c2cccc3nsnc23)CC1 | – | 6.51 µM [falling, single point] | – |
| 10 | C=CCNC(=O)c1cc(-c2ccc(Br)cc2)on1 | 26.6% | 8.2 µM [rising, partial curve] | – |

Looked up above:
Value for COc1ccc(C(=O)N/N=C/c2sc(N3CCOCC3)nc2-c2ccccc2)cc1OC under AC50 [2]: 2.91 µM [rising, full curve]
Value for CC(C)N=C(NS(=O)(=O)c1ccc(Br)cc1)c1ccc(Cl)cc1 under cell number change: -6.21%

(continued)

Row | SMILES | cell number change | AC50 [1] | AC50 [2]
22 | CCOC(=O)N1CCN(C(=O)Nc2ccccc2Cl)CC1 | -31.7% | 3.66 µM [falling, full curve] | 3.66 µM [falling, full curve]
23 | O=C(N/N=C/c1c(F)cccc1Cl)C1CC1 | 18.8% | 13 µM [rising, single point] | –
24 | O=C(Cc1ccc(NC2=NC3CS(=O)(=O)CC3S2)cc1)NCCc1ccccc1 (stereo not drawn) | -0.576% | 2.59 µM [rising, full curve] | –
25 | COc1cc(OC)nc(NC(=O)NS(=O)(=O)c2ccc(F)cc2)n1 | 2.98% | – | 6.51 µM [rising, single point]
26 | O=C(Nc1ccc2c(c1)OCCO2)c1ccc2nccnc2c1 | -9.09% | – | –
27 | Cc1ccc(SCC(=O)NC(=O)NC2CCCC2)c(C)c1 | 85% | – | 20.6 µM [rising, partial curve]
28 | COc1cccc(C(=O)N/N=c2\sc3ccccc3n2C)c1 | -9.79% | 8.2 µM [rising, partial curve] | 6.51 µM [rising, single point]
29 | CCCCC1=CC2=CC(=O)C(C)(OC(=O)CC)C(=O)C2=CN1Cc1ccccc1 (stereo not drawn) | -32.4% | 7.31 µM [falling, partial curve] | 10.3 µM [falling, partial curve]
30 | COCCNC(=O)c1onc(CSc2cc(C)cc(C)c2)c1C(=O)NCCOC | – | 6.51 µM [rising, single point] | –
31 | O=C(CSc1ccccn1)N1CCN(C(=O)CSc2ccccn2)CC1 | 90.5% | – | 29.1 µM [rising, single point]
32 | O=C(CCCn1c(SCC(=O)c2ccc(F)cc2)nc2ccccc2c1=O)NCc1ccccc1 | – | 1.46 µM [rising, full curve] | 0.731 µM [rising, full curve]
33 | Cc1csc(CCc2nc(C)cs2)n1 | -0.452% | 11.6 µM [rising, single point] | –
34 | CN1CCN(NC(=O)c2ccc(Cl)c([N+](=O)[O-])c2)CC1 | -15% | – | –
35 | COc1cccc(Oc2ccc(C(F)(F)F)cc2NC(=O)CCc2nc3ccccc3c(=O)[nH]2)c1 | -1.05% | 23.1 µM [falling, single point] | –
36 | COc1ccc(OC)c(CNc2ccc3c(c2)CCC3)c1 | – | 0.13 µM [rising, full curve, poor fit] | –
37 | C=CCNC(=S)Nc1sc2c(c1C(=O)OCC)CC(C(C)C)OC2 (stereo not drawn) | 63.3% | 4.61 µM [falling, single point] | 29.1 µM [rising, single point]
38 | NC(=O)CC(NC(=O)c1cccc(Br)c1)c1ccc(N2CCCCCC2)c([N+](=O)[O-])c1 (stereo not drawn) | 9.88% | 6.51 µM [rising, single point] | –
39 | CCCCOc1ccc(CSCCNC(=S)Nc2ccccc2)cc1 | -11% | 13 µM [falling, partial curve] | –
40 | COC(=O)C(NC(=O)CN1C(=O)c2ccccc2C1=O)c1ccc(O)c(OC)c1 (stereo not drawn) | -0.787% | 29.1 µM [rising, single point] | –
41 | CC1(C)CC(NC(=O)Nc2ccc([N+](=O)[O-])cc2)CC(C)(C)N1 | -55.4% | 0.82 µM [falling, full curve, poor fit] | 0.366 µM [falling, full curve, poor fit]
42 | Cc1nn(-c2ccccc2)c(N2CCCC2)c1/C=N/O | 27.7% | 6.51 µM [rising, single point] | –

Row | SMILES | cell number change | AC50 [1] | AC50 [2]
43 | COc1ccccc1Nc1n[nH]c(=S)s1 | 31.8% | – | –
44 | O=C(O)O | 0.924% | 29.1 µM [falling, single point] | –
45 | Brc1ccccc1-c1nc(-c2ccccc2)no1 | 204% | 20.6 µM [rising, partial curve] | 20.6 µM [rising, partial curve]
46 | CCn1cc(C2=NCCO2)c2ccccc21 | – | – | 0.103 µM [falling, full curve, poor fit]
47 | O=[N+]([O-])c1cc(Cc2ccccc2)cc(C=Nc2ccc(N3CCOCC3)cc2)c1O | -29.6% | 0.517 µM [falling, single point] | –
48 | COc1ccc(N2CCN(c3ccc(NC(=O)/C=C\C(=O)O)cc3)CC2)cc1 | -30.2% | – | 11.6 µM [falling, single point]
49 | O=C(CNC(=O)c1ccc(Br)o1)NCc1ccc2c(c1)OCO2 | 16% | 5.17 µM [rising, single point] | –
50 | O=C(NCCNC(=O)c1cc(OCC(F)(F)F)ccc1OCC(F)(F)F)Nc1ccccc1 | -30.2% | 0.231 µM [falling, full curve, poor fit] | –
51 | CCOc1ccc2oc(C(=O)N(Cc3nnc(-c4ccccc4Cl)o3)C3CC3)c(C)c2c1 | -29.1% | – | –
52 | O=C(NC1CCS(=O)(=O)C1)c1cccc(S(=O)(=O)N2CCCC2)c1 (stereo not drawn) | -40.5% | – | –
53 | Cc1noc(C)c1C(=O)Nc1ccc(Cl)cc1C(F)(F)F | 15.3% | 0.731 µM [rising, single point] | –
54 | Cc1ccc(C)c(NC(=O)CSc2n[nH]c(-c3ccccn3)n2)c1 | -7.62% | – | –
55 | CC(C)CC(=O)NC(NCC1CCCO1)C(Cl)(Cl)Cl (stereo not drawn) | -72.4% | 0.366 µM [falling, partial curve, poor fit] | 2.31 µM [falling, full curve]
56 | CCc1ccc2nc(N3CCN(C)CC3)c(C#N)cc2c1 | -3.2% | – | –
57 | Cc1c(NC(=O)c2ccc(=O)oc2)c(=O)n(-c2ccccc2)n1C | – | – | 6.51 µM [rising, single point]
58 | Cn1c(SCC(=O)NC2CCCCC2)nnc1-c1ccccc1O | 12.7% | 29.1 µM [rising, single point] | –
59 | NS(=O)(=O)c1ccc(NC(=O)COC(=O)C23CC4CC(CC(C4)C2)C3)cc1 | -12.1% | 29.1 µM [rising, single point] | –
60 | CCOC(=O)C1CCN(C(=O)Cc2ccc(C)cc2)CC1 | -64.4% | 29.1 µM [falling, single point] | 29.1 µM [falling, single point]
61 | Cc1cnc(NC(=O)c2cc3c(C)nn(Cc4ccccc4Cl)c3s2)s1 | 6.2% | – | –
62 | O=C(NCc1ccccn1)c1ccc(NS(=O)(=O)c2ccccc2)cc1 | 23.7% | – | –
63 | CCN(CC)S(=O)(=O)c1cccc(C(=O)N/N=C/c2cccc(O)c2O)c1 | 2.2% | 5.17 µM [rising, full curve, poor fit] | –
